No constants are given. Whether binding was seen depends on the method and setting. Binding seen in cells or lysates may run through a third protein. Some entries that bind do so weakly or less than the wild type.
Target: His-CRABP1 (UniProt P29762)
Assay: pull-down; His-CRABP1 (5 mM as printed) immobilised on Ni-NTA resin, incubated with 1000 ug pre-cleared P19 lysate overnight at 4 °C; 50 mM Tris pH 8.0, 150 mM NaCl, 0.2% NP-40, 20% glycerol, 50 mM imidazole; five washes with 20 mM imidazole; western blot; only the target purified

By UniProt entry, the sequences of proteins in these tests, tags left out.
UniProt Q9DBC7: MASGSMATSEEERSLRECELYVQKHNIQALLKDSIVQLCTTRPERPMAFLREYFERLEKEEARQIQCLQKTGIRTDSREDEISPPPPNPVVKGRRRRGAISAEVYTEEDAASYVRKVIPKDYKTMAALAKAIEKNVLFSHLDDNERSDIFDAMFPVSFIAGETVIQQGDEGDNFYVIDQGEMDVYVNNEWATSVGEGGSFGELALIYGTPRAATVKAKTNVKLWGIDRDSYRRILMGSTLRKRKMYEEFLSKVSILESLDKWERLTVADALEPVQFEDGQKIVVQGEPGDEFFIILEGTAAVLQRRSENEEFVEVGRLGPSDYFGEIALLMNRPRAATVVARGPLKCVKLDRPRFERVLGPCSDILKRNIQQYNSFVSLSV

## PKA RI-alpha (endogenous in P19 cells) (from UniProt Q9DBC7 1-381)
  binding: binds
